Measurements from PubChem BioAssay AID248 (DTP/NCI, 2004).
The list shows only some results of the screen, not a fair sample: it gathers tests that were run many times, whatever their T/C, doses with no T/C, and many T/C values between a quarter and a half above the control. Other doses and runs of a compound stand elsewhere. T/C gives the treated animals as a percentage of the vehicle group. Some doses have a count of surviving animals in place of a T/C: the source holds a T/C of zero for them, seemingly a mark for toxic or unscored doses. Some doses without a T/C left all or most animals alive at the check, yet need not have been tolerated: the source hardly ever lists a survival T/C far under the control, and the zero likely stands for such cases as well. Counts of survivors are from the toxicity check (mostly the fifth day) where no day follows; animals may have died later. Schedule codes are those of the source, read here as Q, the interval in days (D) or hours (H), X, the number of doses. Some entries hold several experiments; the results are listed from low to high. Some schedules carry Z or #; the key to these is not given. Where survival is the endpoint, the PubChem record calls one and a half times the control and up active, and a quarter to a half above the control has no call in these data; cut-offs in other NCI protocols can differ. Marks such as (2×) count equal records among those shown. Some T/C values are followed by the survivors on the day toxicity was checked, most often the fifth; without a count, all were alive then.

Tested on: L1210 leukemia ip in BDF1 mice, survival T/C
Experiment: NCI In Vivo Anticancer Drug Screen. Data for tumor model L1210 Leukemia (intraperitoneal) in B6D2F1 (BDF1) mice
Settings: T/C endpoint: mean survival time, higher T/C = longer survival
[1] = dose: 50.0 mg/kg/injection, schedule: Q01DX009 (ip), vehicle: saline with Tween-80
[2] = dose: 200.0 mg/kg/injection, schedule: Q01DX009 (ip), vehicle: saline with Tween-80
[3] = dose: 400.0 mg/kg/injection, schedule: Q01DX009 (ip), vehicle: saline with Tween-80
[4] = dose: 200.0 mg/kg/injection, schedule: Q01DX001 (ip), vehicle: saline
[5] = dose: 400.0 mg/kg/injection, schedule: Q01DX001 (ip), vehicle: saline
[6] = dose: 200.0 mg/kg/injection, schedule: Q01DX009 (ip), vehicle: Klucel (hydroxypropylcellulose) (HPC)
[7] = dose: 200.0 mg/kg/injection, schedule: Q04DX003 (ip), vehicle: Klucel (hydroxypropylcellulose) (HPC)
[8] = dose: 400.0 mg/kg/injection, schedule: Q04DX003 (ip), vehicle: Klucel (hydroxypropylcellulose) (HPC)
[9] = dose: 400.0 mg/kg/injection, schedule: Q01DX001 (ip), vehicle: carboxymethylcellulose (CMC)

Cc1ccc(C(C)C)cc1NC(=O)/C=C/c1ccccc1
T/C (dose: 25.0 mg/kg/injection, schedule: Q01DX009 (ip), vehicle: saline with Tween-80): 87 (2×), 88, 98 % of control
T/C [1]: 87, 91, 97 % of control
survivor count [1]: 6 of 6
survivor count (dose: 100.0 mg/kg/injection, schedule: Q01DX001 (ip), vehicle: saline with Tween-80): 6 of 6
survivor count (dose: 100.0 mg/kg/injection, schedule: Q01DX009 (ip), vehicle: saline with Tween-80): 3 of 3 and 6 of 6
survivor count [2]: 3 of 3 and 6 of 6
survivor count [3]: 3 of 3 and 6 of 6

CCC/C=N/Nc1ccnc(SCc2ccccc2)n1
survivor count (dose: 150.0 mg/kg/injection, schedule: Q01DX009 (ip), vehicle: DMSO): 3 of 6
survivor count (dose: 300.0 mg/kg/injection, schedule: Q01DX009 (ip), vehicle: DMSO): 1 of 6

NC(Cc1ccc(OC2CCCC2)c(N(CCCl)CCCl)c1)C(=O)O (centres undefined)
T/C (dose: 1.2 mg/kg/injection, schedule: Q01DX009 (ip), vehicle: carboxymethylcellulose (CMC)): 133 % of control
T/C (dose: 2.5 mg/kg/injection, schedule: Q01DX009 (ip), vehicle: carboxymethylcellulose (CMC)): 133 % of control
T/C (dose: 5.0 mg/kg/injection, schedule: Q01DX009 (ip), vehicle: carboxymethylcellulose (CMC)): 143 % of control
T/C (dose: 5.7 mg/kg/injection, schedule: Q01DX009 (ip), vehicle: carboxymethylcellulose (CMC)): 144 % of control
T/C (dose: 13.0 mg/kg/injection, schedule: Q01DX009 (ip), vehicle: saline): 128 % of control
T/C (dose: 15.0 mg/kg/injection, schedule: Q01DX001 (ip), vehicle: carboxymethylcellulose (CMC)): 125 [4 of 6 alive] and 147 % of control
T/C (dose: 20.0 mg/kg/injection, schedule: Q01DX001 (ip), vehicle: carboxymethylcellulose (CMC)): 128 % of control
survivor count (dose: 20.0 mg/kg/injection, schedule: Q01DX009 (ip), vehicle: carboxymethylcellulose (CMC)): 2 of 6
T/C (dose: 30.0 mg/kg/injection, schedule: Q01DX001 (ip), vehicle: carboxymethylcellulose (CMC)): 125 % of control
survivor count (dose: 30.0 mg/kg/injection, schedule: Q01DX009 (ip), vehicle: carboxymethylcellulose (CMC)): 0 of 6
survivor count (dose: 60.0 mg/kg/injection, schedule: Q01DX001 (ip), vehicle: carboxymethylcellulose (CMC)): 1 of 6
survivor count (dose: 75.0 mg/kg/injection, schedule: Q01DX001 (ip), vehicle: carboxymethylcellulose (CMC)): 0 of 6
survivor count (dose: 150.0 mg/kg/injection, schedule: Q01DX001 (ip), vehicle: carboxymethylcellulose (CMC)): 0 of 6
survivor count (dose: 300.0 mg/kg/injection, schedule: Q01DX001 (ip), vehicle: carboxymethylcellulose (CMC)): 0 of 6

O=c1[nH]c2c(cnn2-c2ccccc2)c(=O)n1O
survivor count [4]: 2 of 4
survivor count [5]: 0 of 4

CSC(=S)NNC(=O)c1ccc(C)cc1
survivor count (dose: 150.0 mg/kg/injection, schedule: Q01DX001 (ip), vehicle: saline): 3 of 6
survivor count (dose: 300.0 mg/kg/injection, schedule: Q01DX001 (ip), vehicle: saline): 0 of 6

COc1ccc(/C=N/NC(=O)c2ccccc2NC(=O)c2ccccc2Cl)cc1
survivor count [6]: 6 of 6

Nc1[nH]c(=O)ncc1-c1ccc(Cl)cc1
survivor count [6]: 0 of 3

CC(C)=CCNc1ncnc2c1c(C#N)cn2C1OC(CO)C(O)C1O (centres undefined)
survivor count (dose: 3.12 mg/kg/injection, schedule: Q01DX005 (ip), vehicle: saline): 6 of 6
survivor count (dose: 6.25 mg/kg/injection, schedule: Q01DX005 (ip), vehicle: saline): 5 of 6
survivor count (dose: 12.5 mg/kg/injection, schedule: Q01DX005 (ip), vehicle: saline): 2 of 6
survivor count (dose: 25.0 mg/kg/injection, schedule: Q01DX005 (ip), vehicle: saline): 0 of 6
survivor count (dose: 50.0 mg/kg/injection, schedule: Q01DX005 (ip), vehicle: saline): 0 of 6

CC(=O)/C(C)=C/C=O
survivor count (dose: 25.0 mg/kg/injection, schedule: Q01DX009 (ip), vehicle: water): 2 of 6
survivor count (dose: 25.0 mg/kg/injection, schedule: Q04DX003 (ip), vehicle: water): 0 of 6
survivor count (dose: 50.0 mg/kg/injection, schedule: Q04DX003 (ip), vehicle: water): 2 of 6
survivor count (dose: 100.0 mg/kg/injection, schedule: Q04DX003 (ip), vehicle: water): 0 of 6
survivor count (dose: 200.0 mg/kg/injection, schedule: Q04DX003 (ip), vehicle: water): 0 of 6
survivor count (dose: 400.0 mg/kg/injection, schedule: Q04DX003 (ip), vehicle: water): 0 of 6

O=C(Nc1ccc(C2=NCCN2)cc1)c1ccc([N+](=O)[O-])c(C(=O)Nc2ccc(C3=NCCN3)cc2)c1
T/C (dose: 38.0 mg/kg/injection, schedule: Q01DX Z (ip), vehicle: carboxymethylcellulose (CMC)): 139 % of control
survivor count (dose: 76.0 mg/kg/injection, schedule: Q01DX Z (ip), vehicle: carboxymethylcellulose (CMC)): 0 of 6

CC(=O)Nc1ccc(OCc2ccccc2)c(C)c1C
survivor count (dose: 100.0 mg/kg/injection, schedule: Q01DX009 (ip), vehicle: Klucel (hydroxypropylcellulose) (HPC)): 0 of 6
survivor count [6]: 0 of 6
survivor count (dose: 400.0 mg/kg/injection, schedule: Q01DX009 (ip), vehicle: Klucel (hydroxypropylcellulose) (HPC)): 0 of 6

N#C/C(=C\C=C\c1ccccc1)C(=O)O
survivor count [7]: 1 of 6
survivor count [8]: 0 of 6

Cc1ccc(S(=O)(=O)Oc2ccc3ccccc3c2)cc1
survivor count [2]: 6 of 6
survivor count [3]: 6 of 6

O=C(Oc1ccc(N=Nc2ccccc2)c(C(=O)O)c1)Oc1ccc(N=Nc2ccccc2)c(C(=O)O)c1
survivor count [9]: 2 of 4

Clc1ccc(SSc2ccc(Cl)cc2)cc1
survivor count (dose: 100.0 mg/kg/injection, schedule: Q01DX009 (ip), vehicle: gum acacia): 5 of 6
survivor count (dose: 200.0 mg/kg/injection, schedule: Q01DX009 (ip), vehicle: gum acacia): 5 of 6
survivor count (dose: 400.0 mg/kg/injection, schedule: Q01DX009 (ip), vehicle: gum acacia): 0 of 6

c1ccc2n[se]nc2c1
survivor count (dose: 50.0 mg/kg/injection, schedule: Q04DX003 (ip), vehicle: saline): 0 of 6

Cc1cc(=O)oc2c(CN3CCCCC3)c(O)ccc12
survivor count (dose: 40.0 mg/kg/injection, schedule: Q01DX001 (ip), vehicle: carboxymethylcellulose (CMC)): 2 of 4
survivor count (dose: 80.0 mg/kg/injection, schedule: Q01DX001 (ip), vehicle: carboxymethylcellulose (CMC)): 0 of 4
survivor count (dose: 100.0 mg/kg/injection, schedule: Q01DX001 (ip), vehicle: carboxymethylcellulose (CMC)): 0 of 4
survivor count (dose: 200.0 mg/kg/injection, schedule: Q01DX001 (ip), vehicle: carboxymethylcellulose (CMC)): 0 of 4
survivor count [9]: 0 of 4

C1CCCCCC(C2CCCCCCCCCCC2)CCCCC1
survivor count [4]: 6 of 6
survivor count [5]: 6 of 6

N#CS/C=C\C(N)=O
survivor count (dose: 25.0 mg/kg/injection, schedule: Q01DX009 (ip), vehicle: Klucel (hydroxypropylcellulose) (HPC)): 0 of 6
survivor count (dose: 25.0 mg/kg/injection, schedule: Q04DX003 (ip), vehicle: Klucel (hydroxypropylcellulose) (HPC)): 0 of 6
survivor count (dose: 50.0 mg/kg/injection, schedule: Q01DX009 (ip), vehicle: Klucel (hydroxypropylcellulose) (HPC)): 0 of 6
survivor count (dose: 50.0 mg/kg/injection, schedule: Q04DX003 (ip), vehicle: Klucel (hydroxypropylcellulose) (HPC)): 0 of 6
survivor count (dose: 100.0 mg/kg/injection, schedule: Q04DX003 (ip), vehicle: Klucel (hydroxypropylcellulose) (HPC)): 0 of 6
survivor count [7]: 0 of 6
survivor count [8]: 0 of 6

Cc1cc(N(CCCl)CCCl)ccc1C=Nc1ccc(C(=O)O)c(O)c1
survivor count [9]: 1 of 4
